From article PMC6053445
For at least one entry, the source does not settle the construct or the ends of the probe. The direction of at least one scale is not stated here. Tags and fusion partners may be left off the protein sequences shown.

Target: T1, Sap1-c (Sap1 E109D) (Schizosaccharomyces pombe) (UniProt P40847)
T1 sequence (looked up, limits assumed): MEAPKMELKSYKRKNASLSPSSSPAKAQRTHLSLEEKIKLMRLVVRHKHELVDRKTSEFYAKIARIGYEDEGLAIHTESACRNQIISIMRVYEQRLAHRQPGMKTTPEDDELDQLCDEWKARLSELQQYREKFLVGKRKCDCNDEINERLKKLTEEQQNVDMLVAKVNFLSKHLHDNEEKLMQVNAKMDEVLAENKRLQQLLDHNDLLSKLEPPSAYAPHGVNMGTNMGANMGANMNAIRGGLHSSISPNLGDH
Test: EMSA
Settings: two-fold increase stated for DNA in general, not per site; EMSA: protein 0.68-5120 nM (dilution buffer 10 mM HEPES pH 7.5, 100 mM NaCl, 5% glycerol) in 20 mM HEPES pH 7.6, 50 mM KCl, 3 mM MgCl2, 8% glycerol, 0.2% NP-40; recombinant protein; label: 32P

Sequence | binding signal (fold affinity vs wild-type Sap1)
AACCAGGGATTCAGTGCAGCTATCTTG (double strand) [Ter1] | 2
AGCAATACTACACTACGCTATAATACACTACGTTGAGTATCACTATATGT (double strand) [Tf2] | 2
